{"source": "patent US20260284208A1", "about": "“SYSTEM” (Oxford University Innovation Limited, priority 2023, published 2026)", "system": "library of 8,380 IKZF3 degrons (ZF-eGFP/mCherry reporter) in Jurkat cells", "assay": "Pooled library screen (FACS, NGS, limma voom LogFC of positive vs negative read counts)", "type": "cell-based, human", "protocol": "A library of 8,380 IKZF3 degrons was cloned into pLVX-Sprout to create the eGFP/mCherry protein degradation reporter plasmid pool. A lentivirus pool was then generated using the Lenti-X lentiviral vector production method.\nJurkat cells were transduced at a multiplicity of infection of <0.3 with the lentivirus vector library in order to maximise the number of cells with a single integration. Transductions were carried out in 6 well TC-treated cell culture dishes (Falcon) with 3×10^6 cells per well. Cells were incubated for 2 days at 37° C. and 5% CO2 before the supernatant was removed and replaced with fresh media. 6 days post-transduction, mCherry+ cells were isolated via FACS using the FACS Aria Fusion (BD) in a buffer containing PBS (Gibco), 2 mM EDTA (Gibco), 25 mM HEPES (Sigma) and 1% BSA (Sigma). 8 days later, cells were treated with DMSO or a thalidomide analog for 18 hours at 37° C. and 5% CO2. mCherry+GFPlow and NOT(mCherry+GFPlow) cells were sorted by FACS using the FACS Aria Fusion (BD). DMSO treated cells were used to set the mCherry+GFPlow gate and dead cells were excluded from sorting by staining cells with 1 μg/mL DAPI (ThermoFisher). gDNA was isolated using the Maxwell RSC 48 (Promega). gDNA from cells that were unsorted and untreated were also isolated to determine the library representation on the day of compound treatment. Throughout the screen >600× coverage of the library was maintained. 3 biological replicates were carried out with a new transduction taking place each time.\nA two-step PCR was used where the first PCR (PCR1) amplified the integrated degron sequence from gDNA and the second PCR (PCR2) added Illumina adaptors and barcodes to permit multiplexing. See Supp F for PCR1 and PCR2 primers. Q5 Hot Start High-Fidelity 2× Master Mix (New England Biolabs) was used for both PCRs. Sufficient gDNA was amplified in PCR1 in order to maintain >600× coverage and amplicons were purified using solid phase reversible immobilization (SPRI) beads (Beckman Coulter). Purified PCR1 products were analysed on the Tapestation 4200 (Agilent) to confirm purity prior to proceeding to PCR2. Sufficient PCR1 product was amplified in PCR2 in order to maintain >600× coverage and amplicons were run on a 2% agarose TAE gel. Target bands were excised and purified using the NucleoSpin Gel and PCR Clean-up Kit (Machery Nagel). Amplicons were analysed on the Tapestation 4200 and quantified using Qubit dsDNA HS kit (ThermoFisher). PCR products were pooled and sequenced as paired-reads on the NovaSeq (Illumina) using a SP2 200 cycles kit (Illumina).\nCount distributions, percentage of read mapping, library coverage and replicate correlation per sample were assessed for QC purposes.\nTo carry out the library screen, we used the same plasmid construct as in our earlier flow cytometry assays, but pooling all 8,380 mutants together into one Jurkat population, ensuring a copy number of one plasmid per cell (FIG. 4B). […] These GFP-negative cells were then separated from the remaining GFP-positive population using fluorescence activated cell sorting (FACS). These two populations were then sequenced and the relative abundance of every mutant in both populations compared to provide a log FC value for each mutant sequence. This value indicated how frequently a sequence is observed in the GFP-negative population relative to the GFP-positive population, and therefore how effective a degron it is for that particular IMID compound.", "note": "Further values from the same series stand in other lists."}
{"smiles": "O=C1CCC(N2C(=O)c3ccc(N4CCOCC4)cc3C2=O)C(=O)N1", "note": "(stereo not drawn) [B03]", "values": [{"measurement": "B03_logFC", "setting": "Degron-ID 3000, SEQ ID NO 4258, 46F_47Q_49N_50I_52G_53A_54A_55F_67L_", "value": 2.278}, {"measurement": "B03_logFC", "setting": "Degron-ID 3007, SEQ ID NO 4377, 46F_47Q_49N_50I_52G_53A_54I_55F_67L_", "value": 2.073}, {"measurement": "B03_logFC", "setting": "Degron-ID 3012, SEQ ID NO 3765, 46F_47Q_49N_50I_52G_53A_54P_55F_67L_", "value": 3.09}, {"measurement": "B03_logFC", "setting": "Degron-ID 3017, SEQ ID NO 4430, 46F_47Q_49N_50I_52G_53A_54V_55F_67L_", "value": 2.011}, {"measurement": "B03_logFC", "setting": "Degron-ID 3052, SEQ ID NO 4428, 46F_47Q_49N_50V_52G_53A_54P_55F_67L_", "value": 2.012}, {"measurement": "B03_logFC", "setting": "Degron-ID 3060, SEQ ID NO 3746, 46F_47Q_49P_50I_52G_53A_54A_55F_67L_", "value": 3.129}, {"measurement": "B03_logFC", "setting": "Degron-ID 3061, SEQ ID NO 3774, 46F_47Q_49P_50I_52G_53A_54C_55F_67L_", "value": 3.057}, {"measurement": "B03_logFC", "setting": "Degron-ID 3065, SEQ ID NO 4392, 46F_47Q_49P_50I_52G_53A_54G_55F_67L_", "value": 2.05}, {"measurement": "B03_logFC", "setting": "Degron-ID 3067, SEQ ID NO 3684, 46F_47Q_49P_50I_52G_53A_54I_55F_67L_", "value": 3.259}, {"measurement": "B03_logFC", "setting": "Degron-ID 3068, SEQ ID NO 3803, 46F_47Q_49P_50I_52G_53A_54K_55F_67L_", "value": 3.001}, {"measurement": "B03_logFC", "setting": "Degron-ID 3071, SEQ ID NO 4318, 46F_47Q_49P_50I_52G_53A_54N_55F_67L_", "value": 2.179}, {"measurement": "B03_logFC", "setting": "Degron-ID 3074, SEQ ID NO 4390, 46F_47Q_49P_50I_52G_53A_54R_55F_67L_", "value": 2.053}, {"measurement": "B03_logFC", "setting": "Degron-ID 3075, SEQ ID NO 3880, 46F_47Q_49P_50I_52G_53A_54S_55F_67L", "value": 2.884}, {"measurement": "B03_logFC", "setting": "Degron-ID 3077, SEQ ID NO 3730, 46F_47Q_49P_50I_52G_53A_54V_55F_67L_", "value": 3.156}, {"measurement": "B03_logFC", "setting": "Degron-ID 3100, SEQ ID NO 3763, 46F_47Q_49P_50V_52G_53A_54A_55F_67L_", "value": 3.102}, {"measurement": "B03_logFC", "setting": "Degron-ID 3101, SEQ ID NO 3944, 46F_47Q_49P_50V_52G_53A_54C_55F_67L", "value": 2.768}, {"measurement": "B03_logFC", "setting": "Degron-ID 3105, SEQ ID NO 4412, 46F_47Q_49P_50V_52G_53A_54G_55F_67L_", "value": 2.029}, {"measurement": "B03_logFC", "setting": "Degron-ID 3107, SEQ ID NO 3737, 46F_47Q_49P_50V_52G_53A_54I_55F_67L_", "value": 3.148}, {"measurement": "B03_logFC", "setting": "Degron-ID 3108, SEQ ID NO 3883, 46F_47Q_49P_50V_52G_53A_54K_55F_67L", "value": 2.877}, {"measurement": "B03_logFC", "setting": "Degron-ID 3110, SEQ ID NO 4272, 46F_47Q_49P_50V_52G_53A_54M_55F_67L_", "value": 2.262}, {"measurement": "B03_logFC", "setting": "Degron-ID 3111, SEQ ID NO 4420, 46F_47Q_49P_50V_52G_53A_54N_55F_67L_", "value": 2.018}, {"measurement": "B03_logFC", "setting": "Degron-ID 3112, SEQ ID NO 3654, 46F_47Q_49P_50V_52G_53A_54P_55F_67L_", "value": 3.337}, {"measurement": "B03_logFC", "setting": "Degron-ID 3114, SEQ ID NO 4267, 46F_47Q_49P_50V_52G_53A_54R_55F_67L_", "value": 2.266}, {"measurement": "B03_logFC", "setting": "Degron-ID 3116, SEQ ID NO 3873, 46F_47Q_49P_50V_52G_53A_54T_55F_67L", "value": 2.891}, {"measurement": "B03_logFC", "setting": "Degron-ID 3117, SEQ ID NO 3761, 46F_47Q_49P_50V_52G_53A_54V_55F_67L_", "value": 3.106}, {"measurement": "B03_logFC", "setting": "Degron-ID 3172, SEQ ID NO 3667, 46F_47R_49D_50V_52G_53A_54P_55F_67L_", "value": 3.298}, {"measurement": "B03_logFC", "setting": "Degron-ID 3220, SEQ ID NO 4040, 46F_47R_49E_50V_52G_53A_54A_55F_67L", "value": 2.621}, {"measurement": "B03_logFC", "setting": "Degron-ID 3225, SEQ ID NO 4415, 46F_47R_49E_50V_52G_53A_54G_55F_67L_", "value": 2.025}, {"measurement": "B03_logFC", "setting": "Degron-ID 3292, SEQ ID NO 3826, 46F_47R_49N_50V_52G_53A_54P_55F_67L_", "value": 2.959}, {"measurement": "B03_logFC", "setting": "Degron-ID 3300, SEQ ID NO 4269, 46F_47R_49P_50I_52G_53A_54A_55F_67L_", "value": 2.263}, {"measurement": "B03_logFC", "setting": "Degron-ID 3332, SEQ ID NO 3866, 46F_47R_49P_50Q_52G_53A_54P_55F_67L", "value": 2.895}, {"measurement": "B03_logFC", "setting": "Degron-ID 3360, SEQ ID NO 4310, 46F_47S_49D_50I_52G_53A_54A_55F_67L_", "value": 2.191}, {"measurement": "B03_logFC", "setting": "Degron-ID 3374, SEQ ID NO 4246, 46F_47S_49D_50I_52G_53A_54R_55F_67L_", "value": 2.302}, {"measurement": "B03_logFC", "setting": "Degron-ID 3420, SEQ ID NO 3837, 46F_47S_49E_50I_52G_53A_54A_55F_67L_", "value": 2.948}, {"measurement": "B03_logFC", "setting": "Degron-ID 3434, SEQ ID NO 3868, 46F_47S_49E_50I_52G_53A_54R_55F_67L", "value": 2.894}, {"measurement": "B03_logFC", "setting": "Degron-ID 3435, SEQ ID NO 3921, 46F_47S_49E_50I_52G_53A_545_55F_67L", "value": 2.803}, {"measurement": "B03_logFC", "setting": "Degron-ID 3460, SEQ ID NO 3703, 46F_47S_49E_50V_52G_53A_54A_55F_67L_", "value": 3.207}, {"measurement": "B03_logFC", "setting": "Degron-ID 3461, SEQ ID NO 4261, 46F_47S_49E_50V_52G_53A_54C_55F_67L_", "value": 2.275}, {"measurement": "B03_logFC", "setting": "Degron-ID 3472, SEQ ID NO 4426, 46F_47S_49E_50V_52G_53A_54P_55F_67L_", "value": 2.013}, {"measurement": "B03_logFC", "setting": "Degron-ID 3475, SEQ ID NO 3924, 46F_47S_49E_50V_52G_53A_54S_55F_67L", "value": 2.799}, {"measurement": "B03_logFC", "setting": "Degron-ID 3480, SEQ ID NO 4282, 46F_47S_49N_50I_52G_53A_54A_55F_67L_", "value": 2.246}, {"measurement": "B03_logFC", "setting": "Degron-ID 3492, SEQ ID NO 4273, 46F_47S_49N_50I_52G_53A_54P_55F_67L_", "value": 2.26}]}
